Results deposited as PubChem BioAssay AID1259308 (NCATS, 2017).
The deposit covers about 59,000 reagents; shown is a random part of them. Over the whole deposit, about 1,510 (2.6%) were called active. 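Calls use total luciferase alone and ignore viability, so some active siRNAs may act by altering cell number.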 The numbers tell different reagents against one gene apart.

Aim: 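Genes whose loss raises luciferase production in HEK293 cells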 (primary screen)
Cell system: human HEK293 embryonic kidney cells stably expressing firefly luciferase (HEK-CMV-Luc2-Hygro)
Reagents: single siRNA against human genes, 0.8 pmol siRNA per well
Timing: 72 h
Read-out: 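Reporter luminescence and viable-cell signal on separate replicate plates, given as percent of non-targeting control and median/MAD z-scores, plus per-cell luciferase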
Reading the numbers: total luciferase, z-score and total luciferase, % of control: higher = more reporter protein produced; luciferase per cell, z-score: higher = more reporter output per viable cell; viable cells, % of control: higher = more viable cells
Active means: 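Active when the median/MAD z-score for overall luciferase is greater than 3; a gene was taken forward for validation with new siRNAs if at least two of its three siRNAs passed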
Calls: active = raised luciferase; inactive = no rise

total luciferase, z-score | total luciferase, % of control | luciferase per cell, z-score | viable cells, % of control | activity call | Target gene | reagent no.
-0.204 | 77.8 | 0.58 | 74.6 | inactive | CLSTN1 | 1
-0.397 | 74 | -0.575 | 96.2 | inactive | CLSTN1 | 2
-0.451 | 72.9 | -0.631 | 96.2 | inactive | CLSTN1 | 3
0.861 | 99 | 1.44 | 75.7 | inactive | SLC8B1 | 1
0.0551 | 83 | -0.291 | 100 | inactive | SLC8B1 | 2
-0.677 | 68.4 | 0.742 | 62.9 | inactive | SLC8B1 | 3
-0.601 | 69.9 | -1.17 | 106 | inactive | FAM74A3 | 1
-0.891 | 64.2 | 0.237 | 67.4 | inactive | FAM74A3 | 2
-0.222 | 77.5 | 0.81 | 69.9 | inactive | FAM74A3 | 3
0.86 | 99 | 0.386 | 99.9 | inactive | DNAI4 | 1
-0.791 | 66.2 | -1.19 | 101 | inactive | DNAI4 | 2
-1.14 | 59.1 | -0.774 | 81 | inactive | DNAI4 | 3
0.592 | 93.7 | 0.818 | 84.4 | inactive | COX10 | 1
-1.71 | 47.9 | -1.39 | 77.1 | inactive | COX10 | 2
-0.337 | 75.2 | -0.197 | 88.5 | inactive | COX10 | 3
-0.818 | 65.6 | -0.655 | 87.1 | inactive | TRAF5 | 1
1.45 | 111 | 3.41 | 50.4 | inactive | TRAF5 | 2
-0.312 | 75.7 | -0.721 | 102 | inactive | TRAF5 | 3
-3.06 | 21 | -1.18 | 32 | inactive | C19orf84 | 1
0.326 | 88.4 | 0.528 | 85.9 | inactive | C19orf84 | 2
-0.1 | 79.9 | -0.342 | 97.7 | inactive | C19orf84 | 3
-0.478 | 72.4 | 0.512 | 70.7 | inactive | MVP | 1
-1.63 | 49.5 | -1.32 | 78.4 | inactive | MVP | 2
-0.0566 | 80.8 | 0.287 | 83.7 | inactive | MVP | 3
0.881 | 99.4 | 0.856 | 88.7 | inactive | TAFA2 | 1
-1.06 | 60.9 | -1.19 | 93.2 | inactive | TAFA2 | 2
-1.83 | 45.5 | -1.66 | 78.6 | inactive | TAFA2 | 3
1.51 | 112 | 1.62 | 81.6 | inactive | ZNF580 | 1
-0.917 | 63.6 | -1.32 | 101 | inactive | ZNF580 | 2
0.536 | 92.5 | 1.43 | 71 | inactive | ZNF580 | 3
-0.693 | 68.1 | 0.434 | 67.9 | inactive | CUL3 | 1
1.2 | 106 | 1.67 | 76.3 | inactive | CUL3 | 2
0.748 | 96.8 | 0.529 | 94.1 | inactive | CUL3 | 3
-0.958 | 62.8 | -0.835 | 87.5 | inactive | CHST5 | 1
-0.525 | 71.4 | -1.32 | 113 | inactive | CHST5 | 2
-0.893 | 64.1 | -0.551 | 82.8 | inactive | CHST5 | 3
-0.741 | 67.2 | 0.654 | 63.2 | inactive | COPZ2 | 1
0.262 | 87.1 | -0.442 | 109 | inactive | COPZ2 | 2
1.16 | 105 | 1.35 | 82.1 | inactive | COPZ2 | 3
-0.166 | 78.6 | -0.0286 | 88.5 | inactive | LAMB4 | 1
0.601 | 93.8 | 0.636 | 88.7 | inactive | LAMB4 | 2
2.18 | 125 | 1.06 | 106 | inactive | LAMB4 | 3
-2.36 | 35 | -1.73 | 61.7 | inactive | CUZD1 | 1
-0.683 | 68.3 | 0.533 | 66.3 | inactive | CUZD1 | 2
0.305 | 88 | 0.392 | 88.7 | inactive | CUZD1 | 3
0.42 | 90.2 | 0.451 | 89.6 | inactive | PHLDA2 | 1
-0.251 | 76.9 | -0.247 | 91.7 | inactive | PHLDA2 | 2
-1.32 | 55.7 | 0.0821 | 60.9 | inactive | PHLDA2 | 3
1.2 | 106 | 0.822 | 95.2 | inactive | MTRR | 1
0.622 | 94.3 | 1.61 | 68.9 | inactive | MTRR | 2
0.0215 | 82.3 | 0.236 | 86.4 | inactive | MTRR | 3
0.676 | 95.3 | 0.835 | 85.5 | inactive | ABLIM3 | 1
-1.26 | 56.9 | -0.332 | 69.4 | inactive | ABLIM3 | 2
-0.896 | 64.1 | 1.06 | 54.2 | inactive | ABLIM3 | 3
0.06 | 83.1 | -0.62 | 109 | inactive | NEMP1 | 1
-2.65 | 29.1 | -4.45 | 105 | inactive | NEMP1 | 2
-1.01 | 61.9 | -0.521 | 79.3 | inactive | NEMP1 | 3

An excerpt from above, showing only “total luciferase, % of control”.
DNAI4 #1 = 99
DNAI4 #2 = 66.2
DNAI4 #3 = 59.1
COX10 #1 = 93.7
COX10 #2 = 47.9
COX10 #3 = 75.2
TRAF5 #1 = 65.6
TRAF5 #2 = 111
TRAF5 #3 = 75.7
